This test can be described thus: qHTS Assay for Lipid Storage Modulators in Drosophila S3 Cells.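 As to cell number change: cells counted by Cell Tracker Red CMTPX staining in the red channel.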 As to conditions: BODIPY lipid droplet fluorescence, 18-24 h; for cell number change: measured here: cell count max response, cells fed with added oleic acid. The gist of the method:
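Laser-scanning cytometry quantifies lipid droplet accumulation (500–530 nm total intensity; droplet/cell object ratio) in oleic acid-fed (400 uM added) Drosophila S3 cells treated with a concentration series. 20 uM Triacsin C defined 100% inhibition.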
Background: In qHTS, concentration-response curves come from the screen itself.

The mark [1] stands for this setting: measured here: lipid fluorescence (Fed channel) AC50, cells fed with added oleic acid.
Where [2] appears, read: measured here: cell number channel AC50, cells fed with added oleic acid.

SMILES strings stand for the structures. The list shows a part of the results. Shown are side measurements of this screen, not its main read-out; they come without a call. Most of these compounds were active or inconclusive in the main read-out, so they are no random draw. Potencies come from curve fits of mixed quality, noted in brackets.

For 60 compounds, cell number change and AC50 results are on record in PubChem BioAssay AID2685 (National Center for Advancing Translational Sciences (NCATS), 2010).

As for `CCOC(=O)c1cnc2ccc(C(=O)OC)cc2c1NCc1ccco1`, the cell number change was -8.83%. Further, the AC50 (as a rule, the concentration at which the activity in the assay is half-maximal) under setting [1] was 6.51 µM [rising, single point]. Turning to `C=CCn1c(NCc2ccccc2O)nc2ccccc21`, the cell number change was -6.74%. Also, the AC50 under setting [1] is 29.1 µM [falling, single point].

For the compound `C[C@H]1C=C(C(=O)N2CCOCC2)O[C@@H](OCc2ccc(CO)cc2)C1`, the cell number change turned out to be 20.3%. Also, the AC50 under setting [1] is 13 µM [rising, partial curve].

Regarding `CCN(c1ccccc1)S(=O)(=O)c1ccc(C(=O)Nc2ccccn2)cc1`, the cell number change was -21.8%. Under setting [1], the AC50 was 4.11 µM [falling, partial curve, poor fit]. With `NC(=O)c1ccsc1NC(=O)CCS(=O)(=O)c1ccc(Cl)cc1`, the AC50 under setting [1] is 0.0058 µM [falling, full curve, poor fit]. Turning to `Cc1cccc(N(C)C(=O)C2CCCN2S(=O)(=O)c2cccc3nsnc23)c1` (centres undefined), the cell number change worked out at 17.4%. Under setting [1], the AC50 is 0.58 µM [falling, single point]. On to `Cc1cnn(-c2cc(N/N=C/c3ccc(F)cc3)ncn2)c1`, for which the cell number change turned out to be 10.4%. For the same compound, the AC50 under setting [1] was 0.326 µM [rising, full curve, poor fit].

In the case of `O=C(NCCc1ccc(Cl)cc1)C1CC(=O)N(CCc2ccccc2)C1` (centres undefined), the cell number change was found to be 35.3%. Under setting [2], the AC50 is 0.0103 µM [rising, full curve, poor fit]. The AC50 under setting [1] is 29.1 µM [rising, single point].

With `CCNC(=O)CN(c1ccccc1OC)S(=O)(=O)c1cccs1`, the cell number change amounted to 64.3%. The AC50 under setting [2] is 14.6 µM [rising, partial curve]. In addition, the AC50 under setting [1] was 18.4 µM [rising, partial curve]. Turning to `COc1ccc(C2=NOC(Cn3nc(C(=O)NCc4cccs4)cc3-c3ccccc3)C2)cc1` (centres undefined), the cell number change was -15.5%. Further, the AC50 under setting [1] is 2.31 µM [rising, partial curve, poor fit]. Regarding `COc1ccccc1NC(=O)NCc1ccccc1F`, the cell number change worked out at 31.4%. Further, the AC50 under setting [2] is 1.46 µM [rising, full curve, poor fit]. As for `Cc1ccc(N2C(=O)C3C(c4ccccc4)(C2=O)C3(c2ccccc2)c2ccccc2)cc1` (centres undefined), the cell number change came to 172%. Besides, the AC50 under setting [2] was 25.9 µM [rising, single point]. Besides, the AC50 under setting [1] was 20.6 µM [rising, partial curve]. Regarding `N#Cc1c(NC(=O)CSc2nc(-c3ccco3)cc(C(F)(F)F)n2)sc2c1CCCC2`, the cell number change is -25.1%. Still for that read-out and setting: for `Cc1ccc(-n2nc3ccc(N)cc3n2)cc1C` the value was 0.587%. As for `C=CCNC(=O)c1ccc2c3n(nc2c1)-c1ccc(C)cc1CO3`, the cell number change came out at 11.6%. Further, the AC50 under setting [1] was 0.461 µM [rising, partial curve, poor fit]. As to `CCN1CC=C2C(C#N)=C(N)C(C#N)(C#N)C(c3cc(Cl)ccc3Cl)C2C1` (centres undefined), the cell number change amounted to 4.78%. In addition, the AC50 under setting [1] was 10.3 µM [rising, partial curve, poor fit]. As for `COc1ccc(CNC(=O)C2CCN(C(=O)c3cccc(Cl)c3)CC2)cc1`, the cell number change is -24.3%. Consider `COC(=O)CSc1ncccc1-c1nc2ccccc2[nH]1`, for which the AC50 under setting [2] is 6.51 µM [falling, single point]. On to `Cc1cccc(C)c1OCC(=O)Nc1cc(Cl)ccc1-n1cncn1`, for which the cell number change was 34%. For the same compound, the AC50 under setting [2] was 0.164 µM [rising, full curve, poor fit]. The AC50 under setting [1] is 0.184 µM [rising, full curve, poor fit]. Regarding `COC(=O)c1cc(-c2ccccc2)n[nH]1`, the cell number change was -25%. Take `CC(Oc1cccc(Cl)c1)C(=O)Nc1ccncc1` (centres undefined): the cell number change stood at 9.64%. Besides, under setting [1], the AC50 is 18.4 µM [falling, single point]. In the case of `CCSc1nnc(NC(=O)CSc2nnc(-c3c[nH]c4ccccc34)n2C)s1`, the AC50 under setting [1] is 0.146 µM [falling, full curve, poor fit]. Regarding `Cc1cc(CN2CCC(n3nccc3NC(=O)c3ccccc3C)CC2)n[nH]1`, the cell number change is -28%. The AC50 under setting [2] was 0.00461 µM [falling, full curve, poor fit]. `COc1ccc(CNC(=O)CN(Cc2ccco2)C(=O)CNS(=O)(=O)c2ccc(F)cc2)cc1`: the cell number change is 2.56%.

With `CCOC(=O)N1CCN(C(=O)CSc2nnc(CNC(=O)c3ccccc3F)o2)CC1`, the cell number change was found to be 40.9%. Under setting [2], the AC50 is 0.00461 µM [rising, full curve, poor fit]. With `O=C1C=C(Nc2ccccc2)CC(c2ccccc2)C1` (centres undefined), the cell number change amounted to 30.6%. Further, the AC50 under setting [2] is 32.6 µM [rising, single point]. In the case of `CCCC1Cc2c(sc(N)c2C#N)CO1` (centres undefined), the cell number change turned out to be 4.96%. For the same compound, under setting [1], the AC50 is 7.31 µM [falling, single point]. Take `C=CCn1c(SCC(=O)Nc2sccc2C(N)=O)nc2sc(C)c(C)c2c1=O`: the cell number change came to 8.67%. Moreover, under setting [1], the AC50 is 0.0164 µM [rising, full curve, poor fit]. As to `O=C(CN(c1ccccc1)S(=O)(=O)c1ccccc1[N+](=O)[O-])Nc1ccccc1C(=O)N1CCOCC1`, the cell number change was -55.3%. Besides, the AC50 under setting [2] is 6.51 µM [falling, partial curve]. For the same compound, the concentration at half-maximal activity (AC50) under setting [1] is 5.8 µM [falling, full curve]. Turning to `Cc1nn(CC(=O)N2CCN(C)CC2)c(=O)c2ccccc12`, the cell number change was -3.84%. Under setting [2], the AC50 was 0.206 µM [falling, partial curve]. Besides, the AC50 under setting [1] is 0.146 µM [falling, full curve, poor fit]. Turning to `Cc1ccc(NC(=O)c2cc(S(=O)(=O)N3CCc4ccccc43)cn2C)cc1C`, the cell number change is 43.8%. Besides, the AC50 under setting [2] is 20.6 µM [rising, single point]. As for `O=C(O)c1ccc(N/N=C/c2ccc(OC(=O)c3cccc(Cl)c3)cc2)cc1`, the cell number change is -11.8%. The AC50 under setting [1] was 0.517 µM [falling, single point]. For `COCc1cc(C)nc(Nc2ccc(C)cc2C)c1C#N`, the cell number change amounted to 173%. Moreover, the AC50 under setting [2] is 7.31 µM [rising, partial curve]. Besides, under setting [1], the AC50 was 3.66 µM [rising, partial curve].

Turning to `CCOc1ccc(S(=O)(=O)Nc2nc3cc(OC)ccc3s2)cc1`, the cell number change came to 1.05%. Moreover, the AC50 under setting [1] is 6.51 µM [falling, single point]. Consider `CCCN1C(=O)c2ccccc2NC1c1ccc(Br)cc1` (centres undefined), for which the cell number change amounted to 51.4%. For the same compound, the AC50 under setting [2] was 6.51 µM [rising, full curve, poor fit]. For `Cc1ccc(NS(=O)(=O)c2ccc(NC(=O)c3ccc(Br)o3)cc2)c(C)c1`, the cell number change was -12.2%. As for `COc1ccc(-c2cc(C(=O)Nc3ccc4c(c3)OCO4)no2)cc1OC`, the cell number change was -9.66%. Further, the AC50 under setting [1] was 29.1 µM [rising, single point]. On to `COc1ccccc1C(=O)N/C(=C\c1cn(C)c2ccccc12)C(=O)N1CCCC1`, for which the cell number change worked out at 4.96%. As to `CCc1nn(CC(=O)N2CCN(c3ccc(OC)cc3)CC2)c(=O)c2cc3occc3n12`, under setting [1], the AC50 was 2.91 µM [rising, partial curve]. `CCc1cc2c(=O)c(-c3nc4ccccc4n3C)coc2c(CN2CCCCC2C)c1O` (centres undefined): the cell number change was -11.1%. Turning to `NC1=NS(=O)(=O)NC1c1ccc(Br)cc1` (centres undefined), the cell number change was -12.4%. The AC50 under setting [1] was 0.00517 µM [falling, full curve, poor fit]. `COc1sc(SC)cc1/C=N/NC(=O)c1ccncc1`: the cell number change is 6.3%. For the same compound, the AC50 under setting [1] was 29.1 µM [rising, single point]. For the compound `Cc1cc(-c2nnc(CCC(=O)NC(C)c3ccc(F)cc3)o2)no1` (centres undefined), the cell number change is 20.3%. For the compound `Cc1ccc(C(=O)O/N=C(\N)c2ccccn2)c(C)c1`, the cell number change is -36.6%. Further, the half-maximal activity concentration (AC50) under setting [2] is 11.6 µM [falling, partial curve, poor fit]. For the same compound, the AC50 under setting [1] was 0.00517 µM [falling, full curve, poor fit].

On to `COc1cccc(-n2c(SCc3c(C)noc3C)nnc2-c2cccc(S(=O)(=O)N(C)C)c2)c1`, for which the cell number change was -5.17%. For the same compound, the AC50 under setting [1] is 2.06 µM [rising, single point]. In the case of `Cc1cc(C)cc(OC(=O)N2CCOCC2)c1`, the cell number change is -6.27%. Moreover, the AC50 under setting [1] is 20.6 µM [rising, single point]. On to `CN(C(=O)COC(=O)CNC(=O)C1CCCCC1)c1ccccc1`, for which the cell number change was -11.6%. Turning to `CC(/C=C/c1ccccc1)=N\NC(=O)Cn1nc(C)cc1C`, the cell number change is -32.7%. Moreover, under setting [2], the AC50 is 23.1 µM [falling, single point]. Also, the AC50 under setting [1] was 29.1 µM [falling, single point].

Regarding `Cc1cccc2sc(NS(=O)(=O)c3ccccc3)nc12`, the cell number change stood at 35.4%. The AC50 under setting [2] was 3.66 µM [rising, partial curve, poor fit].

Regarding `CCCCn1c(=O)c(C(C)=O)c(O)c2ccccc21`, the cell number change is -4.94%. Also, the AC50 under setting [1] is 0.651 µM [falling, full curve, poor fit].

Regarding `Cn1c(OCc2cccnc2)nc2c1c(=O)n(Cc1ccc(Br)cc1)c(=O)n2C`, the cell number change is -8.91%. Also, under setting [1], the AC50 was 0.731 µM [falling, full curve, poor fit].

As to `O=[N+]([O-])c1cc(/C=N/OCc2c(Cl)cccc2Cl)ccc1N1CCOCC1`, the cell number change is -146%. Take `Cc1ccc2nc(SCC(=O)N3CCN(c4ccccc4)CC3)nc(=O)n2c1`: the cell number change was -13.8%. The AC50 under setting [1] was 1.84 µM [falling, partial curve]. Regarding `CCCCC(=O)NC1(C(F)(F)F)C(=O)Nc2c1c(=O)[nH]c(=O)n2Cc1ccco1` (centres undefined), the cell number change was -28.2%. For the same compound, the AC50 under setting [2] was 0.92 µM [falling, full curve, poor fit]. In addition, the AC50 under setting [1] is 23.1 µM [falling, partial curve]. On to `Nc1nc(SCc2nc3sc4c(c3c(=O)[nH]2)CCCC4)n[nH]1`, for which the cell number change turned out to be 30.1%. Further, the AC50 under setting [2] was 6.51 µM [rising, partial curve]. The AC50 under setting [1] was 6.51 µM [rising, single point].

Take `O=C(NC1CCCCCC1)c1ccc(CS(=O)(=O)Cc2ccccc2F)o1`: the cell number change is -20.9%. Further, the concentration at half-maximal activity (AC50) under setting [1] is 0.411 µM [falling, full curve, poor fit]. In the case of `CCCc1nn2c(=O)cc(COc3ccc(NC(=O)c4ccco4)cc3)nc2s1`, the cell number change was -11.6%. Besides, under setting [1], the AC50 is 1.46 µM [rising, partial curve, poor fit].

With `CCN(CC)CCN(C(=O)c1ccc2c(c1)OCCO2)c1nc2cc3c(cc2s1)OCO3`, the AC50 under setting [1] was 3.98 µM [rising, single point]. On to `CCc1ccccc1N(C)S(=O)(=O)c1ccc2[nH]cc(C(=O)N3CCc4ccccc43)c(=O)c2c1`, for which the cell number change is 2.66%. Also, the AC50 under setting [1] was 6.51 µM [rising, partial curve, poor fit]. `CCOc1cc(C2NC(=O)N(C)C(C)=C2[N+](=O)[O-])ccc1OC(C)=O` (centres undefined): the cell number change is -17.8%.
